The text below walks through data of doi:10.1101/346619.

These are yes or no findings as the source states them, for the method shown. For some assays here: In cells and extracts the contact can be indirect. For some assays here: Binding can be weak; no strength is given. For some assays here: Tags and fused reporters may be left off the sequences shown.

Assay [1] has as its target HCF1, endogenous (human (endogenous in HUDEP-2)). Put plainly: co-IP.
Assay [2] concerns the target NCoR1 fragment with repressive domains 2 plus 3 (NCoR1-RD2/3) (mouse). The assay can be described thus: two-hybrid.

B1: TR4 (NR2C2), endogenous (protein, UniProt P49116 1-596)
chain: MTSPSPRIQIISTDSAVASPQRIQIVTDQQTGQKIQIVTAVDASGSPKQQFILTSPDGAGTGKVILASPETSSAKQLIFTTSDNLVPGRIQIVTDSASVERLLGKTDVQRPQVVEYCVVCGDKASGRHYGAVSCEGCKGFFKRSVRKNLTYSCRSNQDCIINKHHRNRCQFCRLKKCLEMGMKMESVQSERKPFDVQREKPSNCAASTEKIYIRKDLRSPLIATPTFVADKDGARQTGLLDPGMLVNIQQPLIREDGTVLLATDSKAETSQGALGTLANVVTSLANLSESLNNGDTSEIQPEDQSASEITRAFDTLAKALNTTDSSSSPSLADGIDTSGGGSIHVISRDQSTPIIEVEGPLLSDTHVTFKLTMPSPMPEYLNVHYICESASRLLFLSMHWARSIPAFQALGQDCNTSLVRACWNELFTLGLAQCAQVMSLSTILAAIVNHLQNSIQEDKLSGDRIKQVMEHIWKLQEFCNSMAKLDIDGYEYAYLKAIVLFSPDHPGLTSTSQIEKFQEKAQMELQDYVQKTYSEDTYRLARILVRLPALRLMSSNITEELFFTGLIGNVSIDSIIPYILKMETAEYNGQITGASL
Take B1: the binding entry in assay [1] was “binds”.

B2: Sin3A, two-hybrid fusion (protein, UniProt Q60520 1-1274)
chain: MKRRLDDQESPVYAAQQRRIPGSTEAFSHQHRVLAPAPPVYEAVSETMQSATGIQYSVAPNYQVSAVPQSSGSHGPAIAAVHSSHHHPTAVQPHGGQVVQSHAHPAPPVAPVQGQQQFQRLKVEDALSYLDQVKLQFGSQPQVYNDFLDIMKEFKSQSIDTPGVISRVSQLFKGHPDLIMGFNTFLPPGYKIEVQTNDMVNVTTPGQVHQIPTHGIQPQPQPPPQHPSQPSSQSAPTPAQPAPQPTAAKVSKPSQLQAHTPASQQTPPLPPYASPRSPPVQPHTPVTISLGTAPSLQNNQPVEFNHAINYVNKIKNRFQGQPDIYKAFLEILHTYQKEQRNAKEAGGNYTPALTEQEVYAQVARLFKNQEDLLSEFGQFLPDANSSVLLSKTTAEKVDSVRNDHGGTVKKPQLNNKPQRPSQNGCQIRRHSGTGATPPVKKKPKLMSLKESSMADASKHGVGTESLFFDKVRKALRSAEAYENFLRCLVIFNQEVISRAELVQLVSPFLGKFPELFNWFKNFLGYKESVHLESFPKERATEGIAMEIDYASCKRLGSSYRALPKSYQQPKCTGRTPLCKEVLNDTWVSFPSWSEDSTFVSSKKTQYEEHIYRCEDERFELDVVLETNLATIRVLEAIQKKLSRLSAEEQAKFRLDNTLGGTSEVIHRKALQRIYADKAADIIDGLRKNPSIAVPIVLKRLKMKEEEWREAQRGFNKVWREQNEKYYLKSLDHQGINFKQNDTKVLRSKSLLNEIESIYDERQEQATEENAGVPVGPHLSLAYEDKQILEDAAALIIHHVKRQTGIQKEDKYKIKQIMHHFIPDLLFAQRGDLSDVEEEEEEEMDVDEATGAPKKHNGVGGSPPKSKLLFSNTAAQKLRGMDEVYNLFYVNNNWYIFMRLHQILCLRLLRICSQAERQIEEENREREWEREVLGIKRDKSDSPAIQLRLKEPMDVDVEDYYPAFLDMVRSLLDGNIDSSQYEDSLREMFTIHAYIAFTMDKLIQSIVRQLQHIVSDEVCVQVTDLYLAENNNGATGGQLNSQTSRSLLESAYQRKAEQLMSDENCFKLMFIQSQGQVQLTVELLDTEEENSDDPVEAERWSDYVERYMSSDTTSPELREHLAQKPVFLPRNLRRIRKCQRGREQQEKEGKEGNSKKTMENVESLDKLECRFKLNSYKMVYVIKSEDYMYRRTALLRAHQSHERVSKRLHQRFQAWVDKWTKEHVPREMAAETSKWLMGEGLEGLVPCTTTCDTETLHFVSINKYRVKYGTVFKAP
Turning to B2, the binding result in assay [2] is “no binding”.
